Data from paper doi:10.1101/2021.12.17.473155.
Results are given in words; binding and its absence hold for the method and conditions named. Binding seen in cells or lysates may run through a third protein. Some binding calls cover weakened binding; strength is not graded here. For part of these data: Tags and fused reporters may be left off the sequences shown.

Sequences of proteins named here, by UniProt entry; tags and fusion partners are left off.
UniProt O15550: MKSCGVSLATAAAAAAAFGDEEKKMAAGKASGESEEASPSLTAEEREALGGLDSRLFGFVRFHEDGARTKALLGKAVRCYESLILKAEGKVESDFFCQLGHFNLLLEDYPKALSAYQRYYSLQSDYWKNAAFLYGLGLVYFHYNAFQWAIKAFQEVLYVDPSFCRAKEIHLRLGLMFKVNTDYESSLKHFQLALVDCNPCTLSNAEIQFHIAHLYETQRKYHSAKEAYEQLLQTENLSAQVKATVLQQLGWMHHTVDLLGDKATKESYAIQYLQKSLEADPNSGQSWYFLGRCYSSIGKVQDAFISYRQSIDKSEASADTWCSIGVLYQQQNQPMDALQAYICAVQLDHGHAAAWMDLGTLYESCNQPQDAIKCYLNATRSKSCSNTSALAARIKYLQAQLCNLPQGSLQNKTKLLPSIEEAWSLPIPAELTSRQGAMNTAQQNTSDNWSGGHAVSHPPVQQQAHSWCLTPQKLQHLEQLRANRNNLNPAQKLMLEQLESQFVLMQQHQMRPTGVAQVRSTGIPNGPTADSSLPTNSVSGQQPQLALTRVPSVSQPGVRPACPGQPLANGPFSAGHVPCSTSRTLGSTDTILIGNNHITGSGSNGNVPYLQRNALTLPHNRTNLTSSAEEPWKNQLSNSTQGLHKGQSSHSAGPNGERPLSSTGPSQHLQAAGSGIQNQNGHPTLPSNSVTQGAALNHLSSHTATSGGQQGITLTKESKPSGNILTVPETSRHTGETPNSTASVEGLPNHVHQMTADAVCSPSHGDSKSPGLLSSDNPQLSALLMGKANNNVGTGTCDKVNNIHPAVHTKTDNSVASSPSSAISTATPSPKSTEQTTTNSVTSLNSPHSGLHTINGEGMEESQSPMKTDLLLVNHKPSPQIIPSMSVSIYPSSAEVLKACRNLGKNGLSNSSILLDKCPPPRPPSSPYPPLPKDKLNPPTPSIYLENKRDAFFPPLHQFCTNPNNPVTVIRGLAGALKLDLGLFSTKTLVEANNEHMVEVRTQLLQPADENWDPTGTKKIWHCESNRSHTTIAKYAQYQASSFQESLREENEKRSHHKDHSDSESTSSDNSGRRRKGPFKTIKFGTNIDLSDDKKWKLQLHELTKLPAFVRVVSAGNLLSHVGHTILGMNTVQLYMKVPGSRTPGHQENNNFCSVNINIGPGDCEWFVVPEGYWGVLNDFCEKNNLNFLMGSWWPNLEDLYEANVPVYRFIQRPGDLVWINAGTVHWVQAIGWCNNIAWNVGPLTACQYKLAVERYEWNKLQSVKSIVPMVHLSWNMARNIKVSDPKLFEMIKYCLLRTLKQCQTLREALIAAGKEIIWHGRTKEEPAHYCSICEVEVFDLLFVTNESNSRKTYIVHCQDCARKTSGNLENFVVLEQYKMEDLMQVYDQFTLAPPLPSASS
UniProt Q13547: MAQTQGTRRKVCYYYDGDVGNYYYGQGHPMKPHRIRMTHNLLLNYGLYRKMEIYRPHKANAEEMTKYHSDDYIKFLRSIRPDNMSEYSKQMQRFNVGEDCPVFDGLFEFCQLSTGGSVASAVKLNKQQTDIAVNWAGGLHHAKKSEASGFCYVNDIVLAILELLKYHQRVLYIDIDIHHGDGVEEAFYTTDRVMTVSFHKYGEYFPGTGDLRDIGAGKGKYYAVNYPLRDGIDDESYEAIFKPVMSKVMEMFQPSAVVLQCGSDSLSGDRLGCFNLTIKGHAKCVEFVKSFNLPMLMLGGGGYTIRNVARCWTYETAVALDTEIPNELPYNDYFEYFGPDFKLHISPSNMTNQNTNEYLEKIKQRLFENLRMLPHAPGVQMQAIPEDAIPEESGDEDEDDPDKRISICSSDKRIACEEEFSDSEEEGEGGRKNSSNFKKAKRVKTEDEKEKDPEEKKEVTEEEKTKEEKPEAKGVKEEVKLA
UniProt Q92769: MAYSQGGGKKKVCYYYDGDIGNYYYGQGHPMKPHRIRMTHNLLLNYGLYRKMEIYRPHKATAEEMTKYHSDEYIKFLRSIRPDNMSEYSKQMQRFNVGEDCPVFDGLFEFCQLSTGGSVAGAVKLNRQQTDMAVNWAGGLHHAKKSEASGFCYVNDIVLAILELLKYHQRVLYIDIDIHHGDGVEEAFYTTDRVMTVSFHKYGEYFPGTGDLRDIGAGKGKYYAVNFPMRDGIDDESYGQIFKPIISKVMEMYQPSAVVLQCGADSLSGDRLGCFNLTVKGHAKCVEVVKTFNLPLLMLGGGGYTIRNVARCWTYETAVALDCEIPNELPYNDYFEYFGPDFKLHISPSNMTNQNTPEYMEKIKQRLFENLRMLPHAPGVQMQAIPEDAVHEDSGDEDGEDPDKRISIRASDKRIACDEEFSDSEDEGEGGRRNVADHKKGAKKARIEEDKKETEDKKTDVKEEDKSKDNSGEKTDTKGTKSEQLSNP
UniProt Q92830: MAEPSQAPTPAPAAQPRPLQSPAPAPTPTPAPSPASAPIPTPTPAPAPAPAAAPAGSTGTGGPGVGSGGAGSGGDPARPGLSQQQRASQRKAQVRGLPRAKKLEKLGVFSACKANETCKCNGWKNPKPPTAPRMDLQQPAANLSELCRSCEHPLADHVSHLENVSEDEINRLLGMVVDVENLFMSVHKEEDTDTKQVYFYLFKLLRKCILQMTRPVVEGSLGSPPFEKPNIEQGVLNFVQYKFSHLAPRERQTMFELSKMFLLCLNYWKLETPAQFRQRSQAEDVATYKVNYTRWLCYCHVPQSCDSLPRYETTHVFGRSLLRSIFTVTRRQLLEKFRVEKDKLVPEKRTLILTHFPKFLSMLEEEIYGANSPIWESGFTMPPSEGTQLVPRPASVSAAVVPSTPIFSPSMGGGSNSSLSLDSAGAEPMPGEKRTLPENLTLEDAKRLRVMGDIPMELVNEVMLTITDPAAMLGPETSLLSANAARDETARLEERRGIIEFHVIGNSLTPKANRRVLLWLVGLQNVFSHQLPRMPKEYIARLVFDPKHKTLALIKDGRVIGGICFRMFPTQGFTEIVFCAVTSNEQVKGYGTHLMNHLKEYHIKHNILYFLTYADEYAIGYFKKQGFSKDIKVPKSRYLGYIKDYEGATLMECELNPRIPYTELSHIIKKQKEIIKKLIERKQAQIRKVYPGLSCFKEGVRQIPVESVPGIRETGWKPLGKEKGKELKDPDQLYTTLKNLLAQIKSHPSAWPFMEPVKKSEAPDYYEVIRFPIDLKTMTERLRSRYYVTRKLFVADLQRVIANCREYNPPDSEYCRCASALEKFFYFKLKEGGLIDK
UniProt Q15291: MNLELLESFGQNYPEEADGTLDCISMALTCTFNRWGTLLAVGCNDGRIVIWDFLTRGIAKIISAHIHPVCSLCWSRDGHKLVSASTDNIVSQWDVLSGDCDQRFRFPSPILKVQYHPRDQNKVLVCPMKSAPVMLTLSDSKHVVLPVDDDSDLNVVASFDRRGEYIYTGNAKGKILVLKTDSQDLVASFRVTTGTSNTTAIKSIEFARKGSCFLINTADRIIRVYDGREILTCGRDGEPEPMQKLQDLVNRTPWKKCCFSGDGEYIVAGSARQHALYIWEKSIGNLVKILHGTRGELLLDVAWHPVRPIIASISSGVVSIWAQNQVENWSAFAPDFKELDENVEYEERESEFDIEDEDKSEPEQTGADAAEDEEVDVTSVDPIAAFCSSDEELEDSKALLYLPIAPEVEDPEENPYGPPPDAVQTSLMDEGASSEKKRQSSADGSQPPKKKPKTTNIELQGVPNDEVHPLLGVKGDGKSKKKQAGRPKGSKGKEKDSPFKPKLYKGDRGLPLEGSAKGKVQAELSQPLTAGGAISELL

B1: ELMSAN1 (protein, UniProt Q6PJG2 1-1045)
chain: MNLQAQPKAQNKRKRCLFGGQEPAPKEQPPPLQPPQQSIRVKEEQYLGHEGPGGAVSTSQPVELPPPSSLALLNSVVYGPERTSAAMLSQQVASVKWPNSVMAPGRGPERGGGGGVSDSSWQQQPGQPPPHSTWNCHSLSLYSATKGSPHPGVGVPTYYNHPEALKREKAGGPQLDRYVRPMMPQKVQLEVGRPQAPLNSFHAAKKPPNQSLPLQPFQLAFGHQVNRQVFRQGPPPPNPVAAFPPQKQQQQQQPQQQQQQQQAALPQMPLFENFYSMPQQPSQQPQDFGLQPAGPLGQSHLAHHSMAPYPFPPNPDMNPELRKALLQDSAPQPALPQVQIPFPRRSRRLSKEGILPPSALDGAGTQPGQEATGNLFLHHWPLQQPPPGSLGQPHPEALGFPLELRESQLLPDGERLAPNGREREAPAMGSEEGMRAVSTGDCGQVLRGGVIQSTRRRRRASQEANLLTLAQKAVELASLQNAKDGSGSEEKRKSVLASTTKCGVEFSEPSLATKRAREDSGMVPLIIPVSVPVRTVDPTEAAQAGGLDEDGKGPEQNPAEHKPSVIVTRRRSTRIPGTDAQAQAEDMNVKLEGEPSVRKPKQRPRPEPLIIPTKAGTFIAPPVYSNITPYQSHLRSPVRLADHPSERSFELPPYTPPPILSPVREGSGLYFNAIISTSTIPAPPPITPKSAHRTLLRTNSAEVTPPVLSVMGEATPVSIEPRINVGSRFQAEIPLMRDRALAAADPHKADLVWQPWEDLESSREKQRQVEDLLTAACSSIFPGAGTNQELALHCLHESRGDILETLNKLLLKKPLRPHNHPLATYHYTGSDQWKMAERKLFNKGIAIYKKDFFLVQKLIQTKTVAQCVEFYYTYKKQVKIGRNGTLTFGDVDTSDEKSAQEEVEVDIKTSQKFPRVPLPRRESPSEERLEPKREVKEPRKEGEEEVPEIQEKEEQEEGRERSRRAAAVKATQTLQANESASDILILRSHESNAPGSAGGQASEKPREGTGKSRRALPFSEKKKKTETFSKTQNQENTFPCKKCGR

Tests used:
FLAG-ELMSAN1 = molecular target: T1, FLAG-ELMSAN1 (UniProt Q6PJG2); experiment: co-IP
T1 sequence: B1 chain

FLAG-DNTTIP1 = molecular target: T2, FLAG-DNTTIP1 (UniProt Q9H147); experiment: co-IP
T2 sequence: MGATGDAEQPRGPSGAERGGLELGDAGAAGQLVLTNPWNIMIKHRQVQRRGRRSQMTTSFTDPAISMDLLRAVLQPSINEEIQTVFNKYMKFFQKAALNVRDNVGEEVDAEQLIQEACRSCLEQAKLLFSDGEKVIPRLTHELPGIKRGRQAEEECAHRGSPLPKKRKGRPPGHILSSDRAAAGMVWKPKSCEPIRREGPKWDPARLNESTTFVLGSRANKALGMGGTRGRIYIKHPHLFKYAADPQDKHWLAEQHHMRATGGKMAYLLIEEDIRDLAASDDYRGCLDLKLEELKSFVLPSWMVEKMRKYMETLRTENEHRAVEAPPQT

FLAG-UTX [1] = molecular target: FLAG-UTX (UniProt O15550); experiment: co-IP
FLAG-UTX [2] = molecular target: FLAG-UTX (UniProt O15550); experiment: co-sedimentation
FLAG-UTX [3] = molecular target: FLAG-UTX (UniProt O15550); experiment: co-IP; remark: listed apart in the source
FLAG-UTX [4] = molecular target: FLAG-UTX (UniProt O15550); experiment: co-IP; remark: listed apart in the source

| Molecule | binding (FLAG-ELMSAN1) | binding (FLAG-UTX [1]) | binding (FLAG-UTX [2]) | further results |
| --- | --- | --- | --- | --- |
| HDAC1 (from UniProt Q13547 1-482) (enzyme) | binds |  |  |  |
| HDAC2 (from UniProt Q92769 1-488) (enzyme) | binds |  |  | binding (FLAG-DNTTIP1): binds |
| KAT2A (from UniProt Q92830 1-837) (enzyme) |  | no binding |  |  |
| RBBP5 (from UniProt Q15291 1-538) |  | binds | binds |  |
| B1 |  |  | binds | binding (FLAG-UTX [3]): binds; binding (FLAG-UTX [4]): binds |
